These are yes or no findings as the source states them, for the method shown. In cells and extracts the contact can be indirect. Here binding means that the protein was enriched with, or labelled near, the bait; the list need not be complete. One block for each molecule: values may come before it.
Columns and labels:
[1] = target: Cullin 5 (mouse (endogenous in cultured HSPCs and bone marrow cells)) (UniProt Q9D5V5); test: affinity purification with mass spectrometry; anti-CUL5 antibody (4 ug/mg) or rabbit IgG isotype control, Dynabeads; lysate (1% NP-40, 100 mM NaCl, 50 mM Tris-HCl) of HSPCs expanded from WT CD34lo HSCs with TPO, SCF and IL-3, bortezomib 50 nM for 2 hours before harvest; overnight at 4°C; tandem mass spectrometry
[2] = target: T1, LRRC41 (mouse (endogenous in cultured HSPCs and bone marrow cells)) (UniProt Q8K1C9); test: affinity purification with mass spectrometry; anti-LRRC41 antibody (4 ug/mg) or rabbit IgG, Dynabeads; WT bone marrow cells stimulated with IL-3 (20 ng/mL), cross-linked with disuccinimidyl dibutyric urea (1 mM, 10 minutes) before lysis; overnight at 4°C; mass spectrometry
T1 sequence: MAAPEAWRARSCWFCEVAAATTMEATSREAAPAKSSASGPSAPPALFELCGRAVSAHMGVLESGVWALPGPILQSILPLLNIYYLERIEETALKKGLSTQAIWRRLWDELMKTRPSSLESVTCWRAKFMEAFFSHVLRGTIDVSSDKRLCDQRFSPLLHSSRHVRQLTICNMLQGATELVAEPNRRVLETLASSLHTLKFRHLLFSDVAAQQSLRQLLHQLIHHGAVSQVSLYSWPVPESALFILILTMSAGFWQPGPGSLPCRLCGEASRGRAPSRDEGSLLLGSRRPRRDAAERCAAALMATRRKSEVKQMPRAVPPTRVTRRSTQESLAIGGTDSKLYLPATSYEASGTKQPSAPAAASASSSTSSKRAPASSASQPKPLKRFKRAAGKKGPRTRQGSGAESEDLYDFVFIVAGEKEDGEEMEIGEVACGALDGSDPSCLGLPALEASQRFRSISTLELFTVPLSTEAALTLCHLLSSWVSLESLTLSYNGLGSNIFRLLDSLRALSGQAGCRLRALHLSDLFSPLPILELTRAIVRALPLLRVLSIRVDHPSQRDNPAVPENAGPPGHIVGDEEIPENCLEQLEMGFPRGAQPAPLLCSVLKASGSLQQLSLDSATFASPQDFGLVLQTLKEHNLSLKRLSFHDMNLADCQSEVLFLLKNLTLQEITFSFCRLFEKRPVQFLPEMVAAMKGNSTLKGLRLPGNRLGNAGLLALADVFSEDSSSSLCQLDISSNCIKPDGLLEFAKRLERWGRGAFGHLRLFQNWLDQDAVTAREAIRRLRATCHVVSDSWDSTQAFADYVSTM

Amino acid sequences for entries named in this document (tags omitted). Residues count along the entry.
UniProt Q9D5V5: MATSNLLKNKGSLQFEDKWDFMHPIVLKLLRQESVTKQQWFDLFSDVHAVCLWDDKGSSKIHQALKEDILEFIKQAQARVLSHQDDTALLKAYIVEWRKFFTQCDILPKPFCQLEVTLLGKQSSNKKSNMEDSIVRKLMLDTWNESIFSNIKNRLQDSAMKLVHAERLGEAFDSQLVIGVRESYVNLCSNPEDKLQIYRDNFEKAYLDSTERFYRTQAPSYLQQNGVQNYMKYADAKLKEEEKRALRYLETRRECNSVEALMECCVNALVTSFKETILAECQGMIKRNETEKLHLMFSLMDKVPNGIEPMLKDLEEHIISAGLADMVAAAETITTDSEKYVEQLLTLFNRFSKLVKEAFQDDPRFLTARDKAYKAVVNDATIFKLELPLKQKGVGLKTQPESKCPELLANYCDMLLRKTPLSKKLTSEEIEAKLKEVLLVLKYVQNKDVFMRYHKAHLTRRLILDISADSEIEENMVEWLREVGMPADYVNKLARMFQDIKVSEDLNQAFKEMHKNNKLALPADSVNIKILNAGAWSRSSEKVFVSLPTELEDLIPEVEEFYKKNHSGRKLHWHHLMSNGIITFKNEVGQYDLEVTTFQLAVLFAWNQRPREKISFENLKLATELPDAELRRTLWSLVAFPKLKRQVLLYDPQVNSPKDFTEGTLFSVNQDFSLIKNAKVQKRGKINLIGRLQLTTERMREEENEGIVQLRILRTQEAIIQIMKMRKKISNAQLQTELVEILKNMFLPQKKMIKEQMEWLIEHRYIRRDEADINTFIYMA
UniProt P29595, residues 1-76: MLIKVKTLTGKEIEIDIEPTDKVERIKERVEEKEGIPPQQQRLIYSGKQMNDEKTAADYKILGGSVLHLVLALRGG
UniProt Q8BHD8: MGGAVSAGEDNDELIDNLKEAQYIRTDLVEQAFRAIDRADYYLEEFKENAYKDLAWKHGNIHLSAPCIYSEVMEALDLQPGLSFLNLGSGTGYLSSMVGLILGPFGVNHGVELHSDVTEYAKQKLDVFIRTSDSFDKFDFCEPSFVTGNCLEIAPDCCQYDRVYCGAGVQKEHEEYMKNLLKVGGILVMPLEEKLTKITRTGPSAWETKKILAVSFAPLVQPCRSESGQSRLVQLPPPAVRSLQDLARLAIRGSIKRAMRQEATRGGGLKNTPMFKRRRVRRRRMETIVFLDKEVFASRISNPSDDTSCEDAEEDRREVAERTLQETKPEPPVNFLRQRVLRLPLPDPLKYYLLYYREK
UniProt P62869: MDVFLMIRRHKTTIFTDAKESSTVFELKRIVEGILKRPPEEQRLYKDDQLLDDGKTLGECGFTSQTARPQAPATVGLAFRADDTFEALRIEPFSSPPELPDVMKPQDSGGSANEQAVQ

- binding [1]: binds
- binding [2]: binds
Molecule: NEDD8 (from UniProt P29595 1-76)

- binding [1]: binds
Molecule: PCMTD2 (from UniProt Q8BHD8 1-359)

- binding [1]: binds
B1: WSB1 (protein, UniProt O54927 1-421)
chain: MASFPPRVNEKEIVRSRTIGELLAPAAPFDKKCGGENWTVAFAPDGSYFAWSQGYRIVKLVPWSQCRKNFLLHGSKNVTNSSCLKLARQNSNGGQKNKPPEHVIDCGDIVWSLAFGSSVPEKQSRCVNIEWHRFRFGQDQLLLATGLNNGRIKIWDVYTGKLLLNLVDHIEMVRDLTFAPDGSLLLVSASRDKTLRVWDLKDDGNMVKVLRAHQNWVYSCAFSPDCSMLCSVGASKAVFLWNMDKYTMIRKLEGHHHDVVACDFSPDGALLATASYDTRVYVWDPHNGDLLMEFGHLFPSPTPIFAGGANDRWVRAVSFSHDGLHVASLADDKMVRFWRIDEDCPVQVAPLSNGLCCAFSTDGSVLAAGTHDGSVYFWATPRQVPSLQHICRMSIRRVMSTQEVQKLPVPSKILAFLSYRG

- binding [1]: binds
B3: SOCS6 (protein, UniProt Q9JLY0 1-533)
chain: MKKISLKTFRKSFNLSKSKDETEFMVVQPQSLAGDFVKDDSLFGSCYGKDMASCDIGSEDEKGKNRSKSESLMGTLKRRLSAKQKTKGKGGTASTDEDTFSSASAPGGLKDVRAPRPIRSTSLRSHHYSPTPWPLRPTSSEETCIKMEMRVKALVHAASPGPVNGVRKDLRELQPRELRDLQPEPRPESRCSPSSPGDLSLHLEEHVPVVIGLMSQDYLQYTVPLDDGMCPLEGPRSCCLDTSSPMEVSAVPLPGASGAFSEDDSHVDQDLVVGPEILVDSSVNNLLIGTTGVMLQSPRGGHDDAPPLSPLLPPMQNNPIQRNFSGLSGPDLHMAESVRCHLNFDPNSAPGVARVYDSVQSSGPMVVTSLTEELKKLAKQGWYWGPITRWEAEGKLANVPDGSFLVRDSSDDRYLLSLSFRSHGKTLHTRIEHSNGRFSFYEQPDVEGHTSIVDLIEHSIRDSENGAFCYSRSRLPGSATYPVRLTNPVSRFMQVRSLQYLCRFVIRQYTRIDLIQKLPLPNKMKDYLQEKHY

The remaining lines, values behind:

Molecule: ELOB (from UniProt P62869 1-118)
- binding [2]: binds

Molecule: Cullin 5 (from UniProt Q9D5V5 1-780)
- binding [2]: binds

B2: CAND1 (protein, UniProt Q6ZQ38 1-1230)
chain: MASASYHISNLLEKMTSSDKDFRFMATNDLMTELQKDSIKLDDDSERKVVKMILRLLEDKNGEVQNLAVKCLGPLVSKVKEYQVETIVDTLCTNMLSDKEQLRDISSIGLKTVIGELPPASSGSALAANVCKKITGRLTSAIAKQEDVSVQLEALDIMADMLSRQGGLLVNFHPSILTCLLPQLTSPRLAVRKRTIIALGHLVMSCGNIVFVDLIEHLLSELSKNDSMSTTRTYIQCIAAISRQAGHRIGEYLEKIIPLVVKFCNVDDDELREYCIQAFESFVRRCPKEVYPHVSTIINICLKYLTYDPNYNYDDEDEDENAMDADGGDDDDQGSDDEYSDDDDMSWKVRRAAAKCLDAVVSTRHEMLPEFYKTVSPALIARFKEREENVKADVFHAYLSLLKQTRPVQSWLCDPDAMEQGDTPLTMLQSQVPNIVKALHKQMKEKSVKTRQCCFNMLTELVNVLPGALTQHIPVLVPGIIFSLNDKSSSSNLKIDALSCLYVILCNHSPQVFHPHVQALVPPVVACVGDPFYKITSEALLVTQQLVKVIRPLDQPSSFDATPYIKDLFTCTIKRLKAADIDQEVKERAISCMGQIICNLGDNLGPDLSNTLQIFLERLKNEITRLTTVKALTLIAGSPLKIDLRPVLGEGVPILASFLRKNQRALKLGTLSALDILIKNYSDSLTAAMIDAVLDELPPLISESDMHVSQMAISFLTTLAKVYPSSLSKISGSILNELIGLVRSPLLQGGALSAMLDFFQALVVTGTNNLGYMDLLRMLTGPVYSQSTALTHKQSYYSIAKCVAALTRACPKEGPAVVGQFIQDVKNSRSTDSIRLLALLSLGEVGHHIDLSGQLELKSVILEAFSSPSEEVKSAASYALGSISVGNLPEYLPFVLQEITSQPKRQYLLLHSLKEIISSASVAGLKPYVENIWALLLKHCECAEEGTRNVVAECLGKLTLIDPETLLPRLKGYLISGSSYARSSVVTAVKFTISDHPQPIDPLLKNCIGDFLKTLEDPDLNVRRVALVTFNSAAHNKPSLIRDLLDSVLPHLYNETKVRKELIREVEMGPFKHTVDDGLDIRKAAFECMYTLLDSCLDRLDIFEFLNHVEDGLKDHYDIKMLTFLMLVRLSTLCPSAVLQRLDRLVEPLRATCTTKVKANSVKQEFEKQDELKRSAMRAVAALLTIPEAEKSPLMSEFQSQISSNPELAAIFESIQKDSSSTNLESMDTS
- binding [2]: binds

B4: ASB2 (protein, UniProt Q8K0L0 1-634)
chain: MATEISTRGRQRAIGHEEYSLYSSLSEEELLQMAIEQSLADKTRGPTPAEASASSQTNHQPGHFHPWTRSPSSPENPPARAPLGLFQGVMQKYSSNLFKTSQMAAMDPVLKAIKEGDEEALKIMIQDGKNLAEPNKEGWLPLHEAAYYGQLGCLKVLQQAYPGTIDQRTLQEETALYLATCREHLDCLLSLLQAGAEPDISNKSRETPLYKACERKNAEAVRILVRYNADANHRCNRGWTALHESVSRNDLEVMEILVSGGAKVEAKNVYSITPLFVAAQSGQLEALRFLAKHGADINTQASDSASALYEASKNEHEDVVEFLLSQGADANKANKDGLLPLHVASKKGNYRIVQMLLPVTSRTRVRRSGISPLHLAAERNHDAVLEALLAARFDVNAPLAPERARLYEDRRSSALYFAVVNNNVYATELLLLAGADPNRDVISPLLVAIRHGCLRTMQLLLDHGANIDAYIATHPTAFPATIMFAMKCLSLLKFLMDLGCDGEPCFSCLYGNGPHPPAPRPGRFHDAPVDDKAPSVVQFCEFLSAPEVSRWAGPIIDVLLDYVGNVQLCSRLKEHIDSFEDWAVIKEKAEPPRPLAHLCRLRVRKAIGKYRIKLLDTLPLPGRLIRYLKYENTQ
- binding [1]: binds

B5: ASB3 (protein, UniProt Q9WV72 1-525)
chain: MDFTEAYSDTCSTVGLAAREGNVKILRKLLKKGRSVDVADNRGWMPIHEAAYHNAVECLQMLIHTDSSENYIKAKTFEGFCALHLAVSQGHWKITQILLEAGADPNETTLEETTPLFLAVESGRIDVLKLLLQHGANVNGSHSMSGWNSLHQASFQGNAETIRLLLKQGADRECQDDFGITPLFVAAQYGKLESMSILISSGANVNCQALDKATPLFIAAQEGHTKCVELLLSSGADPDLYCNEDNWQLPIHAAAQMGHTETLDLLIPRTNRACDTGPDKVSPVYSAVFGGREECLEMLLQNGYSPDAQMCLVFGFSSPLCMAFQKDCDFSGIVNILLKYGAQLNELHLAYCLKYEKFSMFCSFLKKGSLMVPWNHTSEFISYAVKAQTKYKAWLPHLLLAGFDPLILLCSSSWVDSASDDILIFTLEFSNWKRLPSAVEKMLSVRANSSWALQQHLASVPSLTHLCRLEIRASLKAEHLHSDIFIHQLPLPRSLQNYLLYEEVLRMNEILEPAANQDGETSKAT
- binding [1]: binds

B6: LRRC41 (protein, UniProt Q8K1C9 1-807)
chain: T1 sequence
- binding [1]: binds

From paper PMC12404750
